Assay results: publication PMC9124216
These are yes or no findings as the source states them, for the method shown. Binding seen in cells or lysates may run through a third protein. A result given as binding can be weak or reduced; the word gives no strength. Where a sequence is shown, tags or fusion partners need not be part of it.

Target: T1, HA-tagged CD151 (UniProt P48509)
T1 sequence: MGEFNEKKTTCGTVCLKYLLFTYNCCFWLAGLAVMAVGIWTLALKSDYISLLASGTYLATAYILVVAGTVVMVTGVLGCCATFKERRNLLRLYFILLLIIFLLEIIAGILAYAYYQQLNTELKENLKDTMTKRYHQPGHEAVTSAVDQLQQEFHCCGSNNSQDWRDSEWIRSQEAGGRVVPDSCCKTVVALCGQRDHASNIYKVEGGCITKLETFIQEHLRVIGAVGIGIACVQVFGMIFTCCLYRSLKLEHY
Assay: co-IP; Flag-tagged ADAM15 and HA-tagged CD151 vectors cotransfected into A549 and H1299 cells for 48 h; immunoprecipitated using agarose beads with anti-Flag antibody; western blot

Integrin α6 (human (endogenous in A549 and H1299)) (receptor)
binding: binds
